# Data: PubChem BioAssay AID1487 (National Center for Advancing Translational Sciences (NCATS), 2009)
# Some of the results follow. The main result of the screen is listed elsewhere. These columns were measured beside it and carry no call. Compounds called inactive in the main read-out are mostly missing here. Words in brackets tell the shape of the fitted curve; partial curves, single points and poor fits give uncertain potencies.
# Experiment: qHTS Assay for Modulators of Lamin A Splicing
# Details: HeLa LMNA splicing GFP/RFP minigene ratio, 48 h
# Method in brief: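 S3 HeLa stable clones carrying a lamin A-EGFP splicing minigene plus DsRed2 were seeded at 600 cells/well in Opti-MEM with 2% FBS, pin-dosed and incubated 48 h at 37°C. Acumen cytometry (488 nm) gave the GFP/RFP total-intensity ratio.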
# [1] = measured here: GFP splicing reporter channel
# [2] = measured here: RFP viability control channel
smiles,measurement,setting,value
O=C(CNC(=O)c1ccccc1F)N/N=C/c1cc(Br)ccc1OC(=O)/C=C/c1ccco1,AC50,[1],"11.2 µM [rising, single point]"
same,AC50,[2],"25.1 µM [rising, single point]"
CC1(C(=O)Nc2ccccc2)Cc2ccccc2C(=O)O1 (stereo not drawn),AC50,[2],"0.0562 µM [falling, full curve, poor fit]"
COc1ccc(/C=C(\C#N)C(=O)NC2CCS(=O)(=O)C2)cc1OC (stereo not drawn),AC50,[2],"20 µM [rising, single point]"
COc1cc2c(cc1C(F)(F)F)N(C(=O)Nc1cc(F)cc(-c3cccnc3)c1)CC2,AC50,[1],"11.2 µM [falling, partial curve]"
same,AC50,[2],"10 µM [falling, partial curve]"
COc1ccc(-c2cc(-c3n[nH]c(=S)n3-c3cc(OC)ccc3OC)[nH]n2)cc1,AC50,[1],"10 µM [rising, partial curve]"
same,AC50,[2],"14.1 µM [rising, single point]"
O=C1C2C3C=CC(C3=C(c3ccccc3)c3ccccc3)C2C(=O)N1Cc1ccccc1 (stereo not drawn),AC50,[1],"5.62 µM [rising, single point]"
same,AC50,[2],"4.47 µM [rising, full curve]"
Cc1nc(NC(=O)c2cccs2)ccc1Br,AC50,[2],"0.251 µM [rising, full curve, poor fit]"
COC(=O)c1ccccc1NC(=O)C1CCCN(S(=O)(=O)c2ccc(F)cc2)C1 (stereo not drawn),AC50,[2],"35.5 µM [rising, single point]"
O=C(CSc1nc2ccccc2[nH]1)Nc1nc(-c2ccccc2)c(-c2ccccc2)o1,AC50,[2],"10 µM [rising, partial curve]"
O/N=C(\c1ccc2c(c1)OCCO2)C1CCCCC1,AC50,[2],"3.16 µM [rising, single point]"
CCOc1cc(/C=N/Nc2nc(-c3cccc(S(=O)(=O)N4CCCC4)c3)cs2)ccc1O,AC50,[2],"12.6 µM [rising, single point]"
CCC(Sc1nc(C)cc(C)n1)C(=O)NC1=NN=C(c2ccc(C)cc2)CS1 (stereo not drawn),AC50,[1],"35.5 µM [falling, single point]"
same,AC50,[2],"35.5 µM [falling, single point]"
CCCc1cc(=O)n2c([nH]c3ccccc32)c1C#N,AC50,[2],"5.01 µM [rising, partial curve]"
CC(C)NS(=O)(=O)c1ccc(CCC(=O)Nc2cc(Cl)ccc2Oc2ccccc2)cc1,AC50,[1],"11.2 µM [rising, partial curve, poor fit]"
same,AC50,[2],"15.8 µM [rising, single point]"
CN1C(=O)C2(OCC(COc3ccc(Cl)cc3)O2)c2ccccc21 (stereo not drawn),AC50,[2],"15.8 µM [rising, single point]"
CCN(CC)S(=O)(=O)c1ccc(N2CCOCC2)c(NS(=O)(=O)c2ccc(C)cc2)c1,AC50,[1],"1.78 µM [rising, full curve, poor fit]"
same,AC50,[2],"2.82 µM [rising, full curve, poor fit]"
COC(=O)c1ccc(NC(=S)N2CCN(Cc3ccccc3OC)CC2)cc1,AC50,[1],"0.282 µM [falling, partial curve, poor fit]"
same,AC50,[2],"0.316 µM [falling, partial curve, poor fit]"
COc1ccccc1CNc1nc(-c2cccc(NS(C)(=O)=O)c2)nc2ccccc12,AC50,[1],"25.1 µM [falling, single point]"
same,AC50,[2],"35.5 µM [falling, single point]"
CN(C)c1ccc(/C=C2\SC(=S)N(Nc3ncc(C(F)(F)F)cc3Cl)C2=O)cc1,AC50,[2],"11.2 µM [falling, partial curve, poor fit]"
Cc1nn(-c2nnc(NCc3ccccc3)nn2)c(C)c1Br,AC50,[2],"1.26 µM [falling, full curve, poor fit]"
O=C(CCN1C(=O)C2C3C=CC(C3)C2C1=O)Oc1ccc2ccccc2c1 (stereo not drawn),AC50,[1],"6.31 µM [rising, partial curve, poor fit]"
CCOC(=O)c1sc(NC(=S)NC(=O)C2CC2)cc1C,AC50,[2],"0.708 µM [rising, full curve, poor fit]"
C1=C(CCNc2ncnc3c2[nH]c2ccccc23)CCCC1,AC50,[2],"5.62 µM [rising, single point]"
CC1(C)Cc2c(sc3ncnc(NNC(=S)NCc4ccccc4)c23)CO1,AC50,[2],"1.41 µM [rising, partial curve, poor fit]"
OCCN1CCN(Cc2cccc(Oc3ccc(Cl)cc3)c2)CC1,AC50,[2],"22.4 µM [rising, single point]"
Cc1cc(=O)oc2cc(OCC(=O)OCC(=O)NC3CC3)ccc12,AC50,[2],"0.891 µM [falling, full curve]"
CCN(CC(=O)c1c(N)n(C)c(=O)n(C)c1=O)c1cccc2ccccc12,AC50,[2],"22.4 µM [rising, single point]"
COc1cc(C2C(C(=O)Nc3ccccc3C)=C(C)Nc3nc(SCc4cc(C)ccc4C)nn32)ccc1O (stereo not drawn),AC50,[1],"35.5 µM [falling, single point]"
same,AC50,[2],"35.5 µM [falling, single point]"
CCOC(=O)/C=c1\s/c(=C\c2ccccc2C)c(=O)n1CC(=O)NCc1ccc2c(c1)OCO2,AC50,[2],"3.16 µM [rising, single point]"
O=C(CSc1ccccn1)N/N=C/C=C/c1ccccc1,AC50,[2],"17.8 µM [rising, single point]"
O=C(Nc1ccc2c(c1)CCC2)C1CCN(c2ncccn2)CC1,AC50,[1],"10 µM [rising, partial curve, poor fit]"
same,AC50,[2],"8.91 µM [rising, partial curve]"
CC/C(=N\NC(=O)c1ccc(CN(C)S(=O)(=O)c2ccc(C)cc2)cc1)c1ccc(OC(F)F)cc1,AC50,[2],"35.5 µM [rising, partial curve]"
O=C(c1cn(-c2ccccc2)nc1-c1cccs1)N1CCN(c2ccccc2)CC1,AC50,[2],"35.5 µM [rising, single point]"
O=S(=O)(N/N=C/c1ccccc1OCc1ccc(Cl)cc1)c1ccccc1,AC50,[1],"10 µM [rising, partial curve]"
same,AC50,[2],"15.8 µM [rising, partial curve]"
CCOC(=O)c1ccc(NC(=S)N2CCN(c3ccc(N4CCOCC4)nn3)CC2)cc1,AC50,[1],"3.55 µM [falling, partial curve, poor fit]"
same,AC50,[2],"3.98 µM [falling, partial curve, poor fit]"

# As a working copy, some entries already given.
smiles,measurement,setting,value
O=C(Nc1ccc2c(c1)CCC2)C1CCN(c2ncccn2)CC1,AC50,[2],"8.91 µM [rising, partial curve]"
CC/C(=N\NC(=O)c1ccc(CN(C)S(=O)(=O)c2ccc(C)cc2)cc1)c1ccc(OC(F)F)cc1,AC50,[2],"35.5 µM [rising, partial curve]"
